The text below walks through data of the supplement of paper PMC11006884.

The entries are a selection whose mix differs from that of the whole data set.

Compound in the test: COC(=O)C#Cc1ccccc1 [methyl 3-phenylpropiolate]
The experiment in a line: log2 ratio of iodoacetamide-alkyne labeling of the cysteine site, DMSO over compound (competition); higher = stronger covalent engagement of the cysteine by the compound, active = 1 or more. As to conditions: 500 µM; treatment time 1 h; system: HEK293T cell lysate. The gist of the method: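 HEK293T lysate at 2 mg/mL was treated with vehicle or electrophile (500 µM) for 1 h at ambient temperature, then labelled with iodoacetamide alkyne (1 h), clicked to sCIP-TMT reagents, pooled, digested with trypsin overnight at 37 °C, enriched on streptavidin and eluted with acid. Peptides were analysed by Orbitrap Eclipse LC-MS/MS with FAIMS and quantified in FragPipe, using duplicate channels and three replicates, with cysteines quantified in only one replicate excluded. The log2 competition ratio for each cysteine is the mean control-channel reporter intensity divided by the mean compound-channel reporter intensity.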
Regarding ATG3 C182 (UniProt Q9NT62), the “log2 ratio of iodoacetamide-alkyne labeling” value (“log2 ratio” for short) is inactive: 0.632.
The figure for XAB2 C86 (UniProt Q9HCS7) is inactive: -0.243; for CXorf56 C96 (UniProt Q9H5V9) it is inactive: -0.0277; for WDR26 C656 (UniProt Q9H7D7) it is inactive: 0.137.
Turning to XPNPEP1 C342 (UniProt Q9NQW7), the “log2 ratio” value was inactive: -0.0873.
The figure for MDN1 C57 (UniProt Q9NU22) is inactive: 0.0881.
In the case of UniProt Q9H773_C162, the “log2 ratio” value is inactive: 0.268.
Under UniProt Q9H974_C324 stands inactive: 0.619; under MBIP C243 (UniProt Q9NS73), inactive: 0.661.
As for GPHN C284 (UniProt Q9NQX3), the “log2 ratio” value was inactive: 0.457.
The figure for GPHN C419 (UniProt Q9NQX3) is inactive: 0.38; for BAZ1A C898 (UniProt Q9NRL2) it is inactive: 0.126.
Take MBNL1 C34 (UniProt Q9NR56): the “log2 ratio” value is inactive: 0.203.
GEMIN7 C44 (UniProt Q9H840): the “log2 ratio” value was inactive: 0.0692.
Under KLC4 C53 (UniProt Q9NSK0) stands inactive: 0.0545; under SMARCAD1 C106 (UniProt Q9H4L7), inactive: 0.439.
Under RDH14 C97 (UniProt Q9HBH5) stands inactive: 0.228.
For the target RABEP2 C115 (UniProt Q9H5N1), the “log2 ratio” value was inactive: 0.113.
GOPC C408 (UniProt Q9HD26): the “log2 ratio” value was inactive: 0.52.
Consider RNPEP C181 (UniProt Q9H4A4), for which the “log2 ratio” value is inactive: 0.0149.
As for RPRD1B C234 (UniProt Q9NQG5), the “log2 ratio” value is inactive: 0.513.
The figure for XPNPEP1 C309 (UniProt Q9NQW7) is inactive: 0.143; for RPAP3 C519 (UniProt Q9H6T3) it is inactive: 0.213.
Under GRPEL1 C124 (UniProt Q9HAV7) stands inactive: 0.145.
Turning to UniProt Q9NQG6_C111, the “log2 ratio” value is inactive: 0.389.
The figure for DDX31 C413 (UniProt Q9H8H2) is inactive: -0.0577; for UNC45A C927 (UniProt Q9H3U1) it is inactive: 0.0272; for PHAX C51 (UniProt Q9H814) it is inactive: 0.659.
The figure for GPHN C26 (UniProt Q9NQX3) is inactive: -0.0135; for UniProt Q9H6R7_C574 it is inactive: 0.266.
The figure for OLA1 C117 (UniProt Q9NTK5) is inactive: -0.153; for ANLN C309 (UniProt Q9NQW6) it is inactive: 0.254; for ATP13A1 C574 (UniProt Q9HD20) it is inactive: 0.238.
For EPB41L5 C385 (UniProt Q9HCM4), the “log2 ratio” value was inactive: 0.393.
Under EHMT1 C276 (UniProt Q9H9B1) stands inactive: -0.379; under ANLN C210 (UniProt Q9NQW6), inactive: 0.514.
Regarding C11orf68 C222 (UniProt Q9H3H3), the “log2 ratio” value is inactive: 0.528.
